PubChem BioAssay AID1671195 | Yale University | 2021

Screen: 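Knockdowns that increase or decrease uptake of fluorescent LDL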 (primary screen)
Cells: human Huh7 hepatoma cells
Reagents: siRNA pool against human genes, 18 nM
Duration: about 2 to 2.5 days of knockdown, then 8 h LDL uptake
Challenge: DiI-labelled LDL at 30 µg/ml for 8 h, in lipoprotein-deficient serum medium
Measured: 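Per-cell DiI-LDL intensity by automated imaging; well means scaled to the plate median and given as a robust z-score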
Scale: robust z-score: higher = more LDL uptake after knockdown
Hit rule: 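Active when two or more replicates show a robust z-score above 2 or below -2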
Shown is a random part of about 22,000 reagents tested. Over the whole deposit, about 1,510 (6.9%) got an active call. 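Active includes knockdowns raising or lowering LDL uptake; positive z-scores mean more uptake, negative mean less.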

Target gene,PubChem SID,"robust z-score, replicate 1","robust z-score, replicate 2","robust z-score, replicate 3",call
LPIN2,SID442903002,-0.897,-1.42,-1.27,inactive
C2CD5,SID442891784,-0.583,0.82,0.499,inactive
CARMIL1,SID442888927,0.134,1.92,-0.143,inactive
TBC1D10C,SID442893820,-0.0184,0.193,-0.154,inactive
VANGL2,SID442886965,1.29,1.2,0.566,inactive
HECTD4,SID442891524,0.542,0.309,-0.0248,inactive
HECTD4,SID442895964,-0.376,-0.238,-0.0599,inactive
THY1,SID442888550,0.488,0.277,1.34,inactive
TMEM215,SID442896007,0.292,-0.837,-0.141,inactive
CASP5,SID442888532,0.662,0.409,1.04,inactive
NT5E,SID442892978,0.00804,0.0684,0.228,inactive
OR2S2,SID442899740,-0.516,-0.644,-0.828,inactive
MAP3K19,SID442901755,-0.623,-1.36,-0.87,inactive
RSPRY1,SID442890186,0.42,0.525,0.411,inactive
LNX2,SID442890735,0.346,0.681,0.0992,inactive
RPL32P3,SID442900430,-0.768,-1.09,-0.421,inactive
LRRC8E,SID442894907,-0.228,-0.148,0.0394,inactive
TMEM59,SID442885859,0.741,2.21,1.07,inactive
PDCD7,SID442891992,0.688,0.72,-0.742,inactive
C9orf50,SID442892388,0.345,0.102,0.0756,inactive
SNRNP40,SID442900278,-0.71,-0.577,-0.931,inactive
DEFB114,SID442896249,-0.0903,-0.143,-0.525,inactive
LOC400939 (retired record),SID442892063,0.225,0.231,0.181,inactive
PAX1,SID442898561,-0.693,-0.557,-0.289,inactive
ATOX1,SID442888899,0.523,0.928,0.478,inactive
TMEM272,SID442904234,-1.67,-1.44,-1.5,inactive
NPAS3,SID442890461,-0.294,1.1,0.437,inactive
PGAP2,SID442887477,1.44,-0.28,1.55,inactive
BEX2,SID442887934,0.546,1.35,0.549,inactive
MAGOHB,SID442900781,-1.55,0.88,-1.75,inactive
COMMD2,SID442895686,0.852,-0.588,-0.85,inactive
BTBD19,SID442891378,1.05,-0.0597,-0.105,inactive
BMPR2,SID442901889,-0.85,-1.71,-0.378,inactive
OAF,SID442892575,0.135,0.0813,0.231,inactive
CHRM3,SID442884490,-2.57,-2.02,-2.04,active
CPO,SID442889775,0.616,-0.0756,0.995,inactive
KANSL1,SID442899653,-0.717,-0.42,-0.814,inactive
IPO5,SID442883573,3.43,2.2,2.31,active
AGPAT3,SID442885349,0.397,1.59,2.66,inactive
DCAF8L1,SID442900847,-0.992,-1.2,-0.256,inactive
ASPH,SID442901392,-1.06,-0.987,-0.63,inactive
RLN2,SID442900128,-0.864,-0.969,-0.316,inactive
EEF1B2P5,SID442885944,1.18,1.44,1.32,inactive
WIPF2,SID442899422,-0.575,-0.938,-0.344,inactive
NCAPG,SID442903457,-1.32,-1.21,-1.37,inactive
ARHGAP31,SID442885624,0.153,1.64,2.52,inactive
